The record followed here is the supplement of paper PMC12462457.

Values joined by “and” are separate entries in the source; they are usually repeats but may differ in a detail not shown here. Equal values may be shown once. ± gives the standard deviation of the averaged measurements. This is one part of the list. This data set is noisy: repeats of one test often differ as much as different tests do.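 Cells were counted by imaging DAPI-stained nuclei, and cells lacking phalloidin-stained cytoplasm were excluded as dead. Each well's count was divided by the median count of the vehicle wells on the same plate, and values were averaged over two replicate plates.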

The experiment concerns OVCAR8. The experiment is described as follows: cell count relative to DMSO vehicle (fold change); higher = more surviving senescent cells (less killing). Particulars: senescence inducer: cisplatin 10 µM 48 h, then 6 d recovery (CP senescent), exposure time 24 h.

With `Cc1nn(C)c2nc(NNC(=O)Nc3cc(Cl)nc(Cl)c3)cc(C(C)C)c12`, the cell count runs as follows: (compound dose 1 µM) 1.15 ± 0.23; (compound dose 5 µM) 0.711 ± 0.17.
The matching figures for `CC1(C)OC(=O)C=C[C@]2(C)[C@H]3CC[C@@]4(C)[C@H](c5ccoc5)OC(=O)[C@H]5O[C@]54[C@]3(C)C(=O)C[C@@H]12` [Obacunone]: 0.955 ± 0.22 and 0.962 ± 0.33.
The matching figures for `C[C@@H]1CC[C@@]2(NC1)O[C@H]1C[C@H]3[C@@H]4CC=C5C[C@@H](O[C@@H]6O[C@H](CO)[C@@H](O[C@@H]7O[C@@H](C)[C@H](O)[C@@H](O)[C@H]7O)[C@H](O)[C@H]6O[C@@H]6O[C@@H](C)[C@H](O)[C@@H](O)[C@H]6O)CC[C@]5(C)[C@H]4CC[C@]3(C)[C@H]1[C@@H]2C` [Solamargine]: 1.06 ± 0.072 and 0.026 ± 0.02.
With `O=C(O)Cc1ccccc1Nc1c(Cl)cccc1Cl` [Diclofenac], the cell count is, setting by setting: (compound dose 1 µM) 1.01 ± 0.073; (compound dose 5 µM) 0.918 ± 0.036.
The matching figures for `O=C(O)Cc1ccccc1Nc1c(Cl)cccc1Cl` [Diclofenac (potassium)]: 0.9575 ± 0.0092 and 1.11 ± 0.063.
The matching figures for `O=C(O)Cc1ccccc1Nc1c(Cl)cccc1Cl`: 0.777 ± 0.076 and 0.629 ± 0.081.
For `CNC(=O)c1ccccc1Oc1nc(Nc2cc(OC)c(OC)c(OC)c2)ncc1Br`, the cell count reads like this: (compound dose 1 µM) 0.741 ± 0.18; (compound dose 5 µM) 0.736 ± 0.24.
The matching figures for `O=c1[nH]cc(F)c(=O)[nH]1` [5-Fluorouracil]: 1.19 ± 0.12 and 1.05 ± 0.26.
The matching figures for `O=C(O)c1cc(=O)c2cccc(O)c2[nH]1`: 1.177 ± 0.0092 and 0.75 ± 0.14.
On to `COc1cc2c(cc1OC)-c1cc3ccc(OC)c(OC)c3c[n+]1CC2`, for which the cell count reads like this: (compound dose 1 µM) 0.845 and 1.19; (compound dose 5 µM) 0.644 and 1.15.
For `Cc1cc(-c2nc(-c3ccc(OC(F)(F)F)cc3)no2)nn1Cc1ccnc(N2CCN(C3CC3)CC2)c1`, the cell count by setting is: (compound dose 1 µM) 1.04 ± 0.15; (compound dose 5 µM) 0.967 ± 0.019.
The matching figures for `CSc1cccc(Nc2ncc3cc(-c4c(Cl)cccc4Cl)c(=O)n(C)c3n2)c1`: 0.403 ± 0.028 and 0.193 ± 0.029.
In the same order, the values of `Cc1cc(N2CCOCC2)ccc1Nc1nc(NC2CCCCC2)c2[nH]cnc2n1` are 1.544 ± 0.0064 and 1.38 ± 0.36.
In the same order, the values of `Cc1c(-c2ccc(N3CCc4cccc(C(=O)Nc5nc6ccccc6s5)c4C3)nc2C(=O)O)cnn1CC12CC3CC(CC(C3)C1)C2` are 1 ± 0.029 and 0.969 ± 0.036.
In turn, `O=c1c(-c2ccc(O)cc2)coc2cc(O)cc(O)c12` registered a cell count (compound dose 1 µM) of 1.24 ± 0.13 and a cell count (compound dose 5 µM) of 1.17 ± 0.15.
The matching figures for `CCn1cc(-c2ccnc3[nH]c(-c4cccc(CN(C)C)c4)cc23)c(-c2ccc(NC(=O)N(C)C)cc2)n1`: 1.34 ± 0.069 and 1.11 ± 0.051.
The matching figures for `Cc1nc(Nc2n[nH]c3c2CN(C(=O)N[C@H](CN(C)C)c2ccccc2)C3(C)C)c2sccc2n1`: 0.726 ± 0.17 and 0.413 ± 0.0028.
For `O=C(O[C@@H]1Cc2c(O)cc(O)cc2O[C@@H]1c1cc(O)c(O)c(O)c1)c1cc(O)c(O)c(O)c1` [(-)-Epigallocatechin Gallate], the cell count by setting is: (compound dose 1 µM) 1.26 ± 0.068; (compound dose 5 µM) 0.8235 ± 0.0078.
The molecule `CCCCCCC/C=C/C(=O)CCc1ccc(O)c(OC)c1` [[8]-Shogaol] registered a cell count (compound dose 1 µM) of 1.05 ± 0.15 and a cell count (compound dose 5 µM) of 0.927 ± 0.14.
The matching figures for `C[C@@H]1O[C@@H](O[C@@H]2[C@@H](O)[C@H](OCCc3ccc(O)c(O)c3)O[C@H](CO)[C@H]2OC(=O)/C=C/c2ccc(O)c(O)c2)[C@H](O)[C@H](O)[C@H]1O` [Verbascoside]: 1.16 and 0.767 ± 0.022.
The matching figures for `Oc1ccc(Nc2nc(-c3ccc(Cl)cc3)cs2)cc1`: 1.08 ± 0.026 and 0.886 ± 0.58.
The matching figures for `O=C1O[C@H]2[C@@H]3OC(=O)c4cc(O)c(O)c(O)c4-c4c(cc(O)c(O)c4O)C(=O)OC[C@H]2O[C@@H](OC(=O)c2cc(O)c(O)c(O)c2)[C@@H]3OC(=O)c2cc(O)c(O)c3c2[C@@H]2C1=CC(=O)[C@](O)(O3)C2(O)O` [Geraniin]: 1.14 ± 0.032 and 0.881 ± 0.16.
Take `CO[C@H]1C[C@@H]2CC[C@@H](C)[C@@](O)(O2)C(=O)C(=O)N2CCCC[C@H]2C(=O)O[C@H]([C@H](C)C[C@@H]2CC[C@@H](O)[C@H](OC)C2)CC(=O)[C@H](C)/C=C(\C)[C@@H](O)[C@@H](OC)C(=O)[C@H](C)C[C@H](C)/C=C/C=C/C=C/1C` [Rapamycin]: the cell count is, setting by setting: (compound dose 1 µM) 0.93 ± 0.21; (compound dose 5 µM) 0.756 ± 0.11.
The matching figures for `N[C@@H]1CCCN(c2c(/C=C3\SC(=O)NC3=O)cccc2-c2ccccc2)C1`: 1.15 ± 0.04 and 1.04 ± 0.22.
In the same order, the values of `CCOc1ccc(-c2cn(C)nc2-c2cc(OC)c(OC)c(OC)c2)cc1` [Tubulin inhibitor 1] are 0.691 ± 0.021 and 0.744 ± 0.12.
In the same order, the values of `Cc1[nH]c(/C=C2\C(=O)Nc3ccccc32)c(C)c1CCC(=O)O` [Orantinib] are 0.7245 ± 0.005 and 0.807 ± 0.027.
As to `COc1cc(OC)cc(N(CCNC(C)C)c2ccc3ncc(-c4cnn(C)c4)nc3c2)c1` [Erdafitinib], the cell count was found to be 1.08 ± 0.22 (compound dose 1 µM) and 0.553 ± 0.39 (compound dose 5 µM).
`CONC(=O)c1ccccc1Nc1cc(Nc2cc(C)nn2C(C)C)ncc1Cl`: the cell count is 0.761 ± 0.031 (compound dose 1 µM) and 0.853 ± 0.11 (compound dose 5 µM).
The matching figures for `C=CCc1ccc(O)c(OC)c1`: 1.2 ± 0.34 and 0.752 ± 0.3.
The matching figures for `OC[C@@H](O)[C@@H](O)[C@H](O)[C@H](O)CO`: 1.03 ± 0.063 and 0.923 ± 0.47.
Consider `CC(C(=O)O)c1cccc(Oc2ccccc2)c1` (stereo unspecified) [Fenoprofen (Calcium hydrate)], for which the cell count is 0.8175 ± 0.0064 (compound dose 1 µM) and 0.734 ± 0.066 (compound dose 5 µM).
With `Oc1ccc(C2CNCCc3c2cc(O)c(O)c3Cl)cc1` (stereo unspecified), the cell count stood at 1.1 ± 0.16 (compound dose 1 µM) and 0.875 ± 0.019 (compound dose 5 µM).
`O=C1NC(=O)/C(=C/c2ccc3nccc(-c4ccncc4)c3c2)S1`: the cell count is, setting by setting: (compound dose 1 µM) 0.885 ± 0.031; (compound dose 5 µM) 0.844 ± 0.099.
